Assay results as given in patent US12227496B2 (BRISTOL-MYERS SQUIBB COMPANY, priority 2019, dated 2025).
Structures were worked out from names or drawings and are uncertain.

Amino acid sequences for entries named in this document (tags omitted). Residues count along the entry.
UniProt Q96RI1, 262-486 limits assumed: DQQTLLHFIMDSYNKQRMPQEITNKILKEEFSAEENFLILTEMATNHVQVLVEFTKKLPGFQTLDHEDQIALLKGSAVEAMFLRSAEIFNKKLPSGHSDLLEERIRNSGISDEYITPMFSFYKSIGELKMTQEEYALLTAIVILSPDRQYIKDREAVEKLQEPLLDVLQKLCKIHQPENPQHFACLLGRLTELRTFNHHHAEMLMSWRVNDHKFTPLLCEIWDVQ

Target: human FXR (Homo sapiens, UniProt Q96RI1)
Assay: transient human FXR/Gal4-luciferase reporter assay
Type: cell-based
Conditions: read-out: FXR EC50; Gal4-hFXR LBD fusion, luciferase reporter in HEK293 cells; response relative to 8 μM GW-4064

`CC(C)(C)c1nc(C23CCC(CN(C(=O)C4CCOCC4)c4cccc(-c5ccc(P(C)(C)=O)cc5)c4)(CC2)CC3)no1` showed an EC50 of 1480 nM.
